# Results as given in PMC7383879, “HSI2/VAL1 and HSL1/VAL2 function redundantly to repress DOG1 expression in Arabidopsis seeds and seedlings”.
# Construct, isoform or probe ends are uncertain for at least one entry. For some assays here: A negative result means that nothing was seen under these conditions. For some assays here: The comparison behind a weaker result is the experiment's own reference, which may not be listed here. For some assays here: Where a protein sequence is shown, tags need not be part of it.
# How the values were obtained:
# [1] = target: T1, HSI2 B3 domain (B3HSI2) (Arabidopsis thaliana) (UniProt Q8W4L5); test: EMSA; conditions: 10 mM Tris pH 7.9, 30 mM KCl, 0.1 mM EDTA, 1 mM DTT, 0.05% NP-40, 6.5% glycerol, 50 fmol probe, 20 min at room temperature; recombinant protein; protein details: His-Trx (Results), His (Methods, legend); label: 3' biotin
# T1 sequence (looked up, limits assumed): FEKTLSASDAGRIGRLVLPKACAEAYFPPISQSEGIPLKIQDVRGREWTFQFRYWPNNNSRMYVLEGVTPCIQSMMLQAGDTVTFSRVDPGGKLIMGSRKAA
# [2] = target: mutant HSI2 B3 domain (mB3HSI2) (Arabidopsis thaliana) (UniProt Q8W4L5); test: EMSA; conditions: 10 mM Tris pH 7.9, 30 mM KCl, 0.1 mM EDTA, 1 mM DTT, 0.05% NP-40, 6.5% glycerol, 50 fmol probe, 20 min at room temperature; recombinant protein; protein details: His; label: 3' biotin
sequence,measurement,setting,value
AATTAATACTATAATATATGCATGTAAAATCTTGTTTTTTCT (double strand) [RY2 probe],binding result,[1],binds more weakly
GTCCTCCACGTAATGCATGCATGCGTTATTTCTTTT (double strand) [RY1 probe],binding result,[2],no binding
